Measurements from the supplement of paper PMC12819154, “High-throughput peptide-centric local stability assay extends protein–ligand identification to membrane proteins, tissues and bacteria” (Nature Structural & Molecular Biology, 2025).
The other results are listed elsewhere or left out. Most entries show no effect beyond the scatter of the controls.

Protein sequences, listed by entry. Tags and fused reporters are not part of them. Lines headed by an entry give the natural chain unless they say otherwise; changes in a name come on top.
UniProt P35612: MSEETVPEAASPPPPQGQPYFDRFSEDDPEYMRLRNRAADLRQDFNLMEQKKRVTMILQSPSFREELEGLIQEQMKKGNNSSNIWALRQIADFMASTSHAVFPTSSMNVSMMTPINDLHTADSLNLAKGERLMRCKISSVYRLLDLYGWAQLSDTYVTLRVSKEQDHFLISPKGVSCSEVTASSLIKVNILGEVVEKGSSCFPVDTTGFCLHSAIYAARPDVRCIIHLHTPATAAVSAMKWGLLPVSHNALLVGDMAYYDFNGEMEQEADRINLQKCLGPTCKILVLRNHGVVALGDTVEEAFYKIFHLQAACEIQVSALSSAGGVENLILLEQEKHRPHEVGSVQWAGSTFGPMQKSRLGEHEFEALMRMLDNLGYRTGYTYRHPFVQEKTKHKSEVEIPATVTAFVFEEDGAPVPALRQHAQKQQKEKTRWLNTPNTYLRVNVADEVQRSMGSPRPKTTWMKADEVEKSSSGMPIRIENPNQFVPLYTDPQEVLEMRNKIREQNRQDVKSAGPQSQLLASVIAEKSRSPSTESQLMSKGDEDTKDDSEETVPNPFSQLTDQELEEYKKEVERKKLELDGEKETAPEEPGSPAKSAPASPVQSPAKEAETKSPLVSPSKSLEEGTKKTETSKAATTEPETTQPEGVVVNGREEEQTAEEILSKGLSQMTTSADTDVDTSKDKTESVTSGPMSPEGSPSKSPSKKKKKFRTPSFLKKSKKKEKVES
UniProt P35270: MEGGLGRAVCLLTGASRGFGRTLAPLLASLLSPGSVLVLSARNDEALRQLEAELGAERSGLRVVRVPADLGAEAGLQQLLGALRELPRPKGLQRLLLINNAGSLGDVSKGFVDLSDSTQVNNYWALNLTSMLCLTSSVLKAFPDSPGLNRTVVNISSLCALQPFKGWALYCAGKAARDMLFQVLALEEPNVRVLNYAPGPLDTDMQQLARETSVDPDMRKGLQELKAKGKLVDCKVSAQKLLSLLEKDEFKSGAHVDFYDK
UniProt P42330: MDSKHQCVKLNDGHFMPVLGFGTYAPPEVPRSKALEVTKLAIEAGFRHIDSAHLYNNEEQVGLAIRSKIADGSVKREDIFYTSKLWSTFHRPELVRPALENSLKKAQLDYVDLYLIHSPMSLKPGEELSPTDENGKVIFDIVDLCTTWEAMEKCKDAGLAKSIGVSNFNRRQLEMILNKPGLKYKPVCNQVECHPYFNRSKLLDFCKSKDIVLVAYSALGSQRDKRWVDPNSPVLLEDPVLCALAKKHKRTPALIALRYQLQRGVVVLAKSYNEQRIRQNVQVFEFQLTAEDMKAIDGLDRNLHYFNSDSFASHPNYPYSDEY
UniProt P35638, whole entry: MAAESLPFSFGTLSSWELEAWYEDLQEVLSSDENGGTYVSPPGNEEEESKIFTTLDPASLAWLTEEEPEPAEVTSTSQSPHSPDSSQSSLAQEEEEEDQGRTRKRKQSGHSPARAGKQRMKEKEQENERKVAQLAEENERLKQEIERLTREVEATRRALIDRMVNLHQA
UniProt P30414: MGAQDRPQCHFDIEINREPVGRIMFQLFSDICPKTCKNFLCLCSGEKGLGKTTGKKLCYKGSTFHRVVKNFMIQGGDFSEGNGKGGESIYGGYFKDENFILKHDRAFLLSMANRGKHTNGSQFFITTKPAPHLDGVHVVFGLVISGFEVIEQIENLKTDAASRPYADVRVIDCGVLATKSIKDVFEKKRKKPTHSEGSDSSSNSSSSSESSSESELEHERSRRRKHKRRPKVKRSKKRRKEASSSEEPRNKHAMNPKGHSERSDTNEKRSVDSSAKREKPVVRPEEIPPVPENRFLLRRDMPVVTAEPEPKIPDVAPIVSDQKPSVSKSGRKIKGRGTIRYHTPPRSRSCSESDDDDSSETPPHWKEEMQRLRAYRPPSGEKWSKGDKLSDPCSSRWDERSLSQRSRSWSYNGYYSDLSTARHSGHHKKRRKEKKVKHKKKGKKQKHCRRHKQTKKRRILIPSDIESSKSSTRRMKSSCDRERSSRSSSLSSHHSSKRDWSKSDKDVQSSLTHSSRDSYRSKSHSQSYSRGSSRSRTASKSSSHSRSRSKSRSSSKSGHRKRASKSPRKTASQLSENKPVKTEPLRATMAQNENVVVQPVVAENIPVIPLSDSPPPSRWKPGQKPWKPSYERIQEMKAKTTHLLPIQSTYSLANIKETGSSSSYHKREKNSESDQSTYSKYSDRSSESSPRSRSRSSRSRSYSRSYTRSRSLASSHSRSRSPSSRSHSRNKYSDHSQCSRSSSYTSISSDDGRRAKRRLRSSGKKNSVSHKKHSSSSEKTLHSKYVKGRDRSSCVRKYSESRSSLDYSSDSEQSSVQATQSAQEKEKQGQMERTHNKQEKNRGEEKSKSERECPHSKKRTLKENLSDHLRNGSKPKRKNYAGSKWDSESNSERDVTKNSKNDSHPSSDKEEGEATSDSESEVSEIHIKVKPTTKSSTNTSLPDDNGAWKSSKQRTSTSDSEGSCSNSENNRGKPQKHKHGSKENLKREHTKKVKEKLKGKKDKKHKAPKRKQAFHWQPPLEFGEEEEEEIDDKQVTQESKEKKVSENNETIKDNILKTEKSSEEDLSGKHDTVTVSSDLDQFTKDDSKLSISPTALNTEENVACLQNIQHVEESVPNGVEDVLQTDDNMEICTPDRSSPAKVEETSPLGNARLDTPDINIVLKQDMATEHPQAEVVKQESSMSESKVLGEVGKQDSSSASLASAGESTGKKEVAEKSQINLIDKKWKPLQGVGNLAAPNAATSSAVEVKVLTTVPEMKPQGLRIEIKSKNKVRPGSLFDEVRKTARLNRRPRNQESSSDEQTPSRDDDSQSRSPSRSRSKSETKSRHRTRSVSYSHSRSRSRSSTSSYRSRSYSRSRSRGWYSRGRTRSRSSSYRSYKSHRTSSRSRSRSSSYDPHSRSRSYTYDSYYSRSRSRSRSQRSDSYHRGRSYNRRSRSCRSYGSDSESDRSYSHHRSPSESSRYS
UniProt P36956: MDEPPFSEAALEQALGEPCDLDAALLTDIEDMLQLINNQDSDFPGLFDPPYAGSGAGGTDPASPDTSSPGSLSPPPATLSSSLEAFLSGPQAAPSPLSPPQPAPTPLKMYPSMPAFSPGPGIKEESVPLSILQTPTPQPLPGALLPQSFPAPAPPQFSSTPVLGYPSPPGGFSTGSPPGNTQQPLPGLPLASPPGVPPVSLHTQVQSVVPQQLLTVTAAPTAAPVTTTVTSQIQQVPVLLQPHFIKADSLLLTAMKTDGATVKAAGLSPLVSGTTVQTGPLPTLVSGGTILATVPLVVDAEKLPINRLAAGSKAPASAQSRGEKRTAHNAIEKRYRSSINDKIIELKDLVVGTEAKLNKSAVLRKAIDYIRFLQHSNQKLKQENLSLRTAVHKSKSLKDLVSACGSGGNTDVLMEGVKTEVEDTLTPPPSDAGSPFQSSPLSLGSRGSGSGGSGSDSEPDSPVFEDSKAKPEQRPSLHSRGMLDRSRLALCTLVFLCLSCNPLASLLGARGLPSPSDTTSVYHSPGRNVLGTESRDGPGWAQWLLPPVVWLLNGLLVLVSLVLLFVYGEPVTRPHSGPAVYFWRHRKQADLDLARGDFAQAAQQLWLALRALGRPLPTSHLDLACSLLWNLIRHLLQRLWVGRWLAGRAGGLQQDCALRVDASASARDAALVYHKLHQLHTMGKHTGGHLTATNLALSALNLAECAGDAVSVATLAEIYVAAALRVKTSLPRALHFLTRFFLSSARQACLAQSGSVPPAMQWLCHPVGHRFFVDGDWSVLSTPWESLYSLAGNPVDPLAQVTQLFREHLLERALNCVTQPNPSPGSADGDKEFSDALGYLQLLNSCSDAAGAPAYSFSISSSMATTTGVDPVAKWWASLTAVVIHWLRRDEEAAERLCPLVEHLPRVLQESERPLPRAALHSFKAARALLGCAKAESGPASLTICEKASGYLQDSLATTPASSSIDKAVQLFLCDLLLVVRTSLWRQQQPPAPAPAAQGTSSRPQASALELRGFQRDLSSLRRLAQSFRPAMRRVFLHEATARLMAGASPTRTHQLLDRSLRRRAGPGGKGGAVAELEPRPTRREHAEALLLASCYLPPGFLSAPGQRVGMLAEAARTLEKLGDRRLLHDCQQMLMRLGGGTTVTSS
UniProt P34913, whole entry: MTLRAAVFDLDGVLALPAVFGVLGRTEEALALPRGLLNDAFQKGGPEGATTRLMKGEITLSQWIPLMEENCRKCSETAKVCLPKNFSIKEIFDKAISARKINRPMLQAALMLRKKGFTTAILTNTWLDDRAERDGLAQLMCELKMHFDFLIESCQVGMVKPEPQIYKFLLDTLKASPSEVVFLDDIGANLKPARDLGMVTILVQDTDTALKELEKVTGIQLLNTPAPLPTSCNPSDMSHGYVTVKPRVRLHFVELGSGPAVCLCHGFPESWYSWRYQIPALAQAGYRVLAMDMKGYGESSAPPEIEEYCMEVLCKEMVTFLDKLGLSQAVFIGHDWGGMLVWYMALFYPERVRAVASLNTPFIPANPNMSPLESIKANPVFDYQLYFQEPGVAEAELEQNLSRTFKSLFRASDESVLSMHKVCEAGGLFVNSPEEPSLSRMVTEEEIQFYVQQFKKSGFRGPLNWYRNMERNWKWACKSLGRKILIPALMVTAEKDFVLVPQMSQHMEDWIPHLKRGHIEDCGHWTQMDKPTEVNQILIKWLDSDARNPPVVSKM
UniProt P33316: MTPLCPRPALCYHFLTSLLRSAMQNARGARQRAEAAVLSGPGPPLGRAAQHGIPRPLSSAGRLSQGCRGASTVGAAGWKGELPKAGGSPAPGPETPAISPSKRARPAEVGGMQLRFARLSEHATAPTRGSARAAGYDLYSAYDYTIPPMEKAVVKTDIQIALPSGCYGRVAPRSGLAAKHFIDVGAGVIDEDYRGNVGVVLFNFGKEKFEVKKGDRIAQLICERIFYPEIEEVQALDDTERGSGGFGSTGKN
UniProt P41223: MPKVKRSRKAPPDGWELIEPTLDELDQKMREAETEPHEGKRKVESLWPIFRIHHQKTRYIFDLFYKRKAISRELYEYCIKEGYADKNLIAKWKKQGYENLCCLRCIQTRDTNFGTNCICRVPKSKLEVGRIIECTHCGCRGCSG
UniProt P40763, whole entry: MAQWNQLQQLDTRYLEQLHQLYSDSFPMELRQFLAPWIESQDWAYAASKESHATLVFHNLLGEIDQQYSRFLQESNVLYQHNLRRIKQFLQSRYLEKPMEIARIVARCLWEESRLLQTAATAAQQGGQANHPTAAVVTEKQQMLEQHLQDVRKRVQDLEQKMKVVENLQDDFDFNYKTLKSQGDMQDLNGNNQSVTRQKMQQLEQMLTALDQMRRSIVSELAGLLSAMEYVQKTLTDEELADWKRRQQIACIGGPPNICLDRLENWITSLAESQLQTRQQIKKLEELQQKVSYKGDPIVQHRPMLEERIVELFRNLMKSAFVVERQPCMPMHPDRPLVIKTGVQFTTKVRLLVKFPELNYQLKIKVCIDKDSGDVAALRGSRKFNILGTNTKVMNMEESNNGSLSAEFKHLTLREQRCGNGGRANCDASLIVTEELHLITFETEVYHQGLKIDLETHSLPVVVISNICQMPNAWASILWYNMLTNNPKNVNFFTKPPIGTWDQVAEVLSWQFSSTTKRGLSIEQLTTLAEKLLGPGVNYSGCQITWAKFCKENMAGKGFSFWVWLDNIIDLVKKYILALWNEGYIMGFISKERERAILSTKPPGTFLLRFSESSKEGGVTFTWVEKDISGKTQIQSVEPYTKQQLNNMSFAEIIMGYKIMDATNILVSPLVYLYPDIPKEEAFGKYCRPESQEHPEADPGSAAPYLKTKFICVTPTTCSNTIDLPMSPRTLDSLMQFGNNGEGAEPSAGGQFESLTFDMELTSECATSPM

The targets below were run with CN[C@@H]1C[C@H]2O[C@@](C)([C@@H]1OC)n1c3ccccc3c3c4c(c5c6ccccc6n2c5c31)C(=O)NC4 [staurosporine] (assay: log2 fold change of tryptic peptide abundance, ligand vs vehicle (limited proteolysis) (log2 ratio); higher = more trypsin-susceptible (destabilized)). Conditions: ligand concentration: 20 uM; sample: K562 cleared lysate; digestion: 4 min, 22 C (HT-PELSA RT4min, Orbitrap Astral).

| Target | log2 fold change |
| --- | --- |
| ADD2 (peptide sequence: SRSPSTESQLMSK, peptide start residue: 528) (UniProt P35612) | -0.51 |
| SPR (peptide sequence: VLNYAPGPLDTDMQQLAR, peptide start residue: 193) (UniProt P35270) | 0.362 |
| AKR1C3 (peptide sequence: SKDIVLVAYSALGSQR, peptide start residue: 208) (UniProt P42330) | -0.281 |
| DDIT3 (peptide sequence: KVAQLAEENER, peptide start residue: 130) (UniProt P35638) | 0.231 |
| NKTR (peptide sequence: LSDPCSSR, peptide start residue: 389) (UniProt P30414) | -0.27 |
| SREBF1 (peptide sequence: TAHNAIEKR, peptide start residue: 326) (UniProt P36956) | 0.433 |
| EPHX2 (peptide sequence: GPLNWYR, peptide start residue: 461) (UniProt P34913) | -0.258 |
| DUT (peptide sequence: ARPAEVGGMQLR, peptide start residue: 104) (UniProt P33316) | -0.198 |
| UniProt P41223 (peptide sequence: QGYENLCCLRCIQTR, peptide start residue: 95) | -0.214 |
| STAT3 (peptide sequence: LLQTAATAAQQGGQANHPTAAVVTEK, peptide start residue: 115) (UniProt P40763) | 0.375 |
